From publication doi:10.1101/2022.02.05.479199
The exact form of at least one protein or probe is not confirmed.

Tests used:
[1] = test system: RPA-DBD-A-Cy3 + Rtt105-Cy5 (C13S); assay: stopped-flow FRET; settings: preformed complex, remodeling kobs 0.62 s-1
[2] = test system: RPA-DBD-D-Cy3 + Rtt105-Cy5 (C13S); assay: stopped-flow FRET; settings: preformed complex, remodeling kobs 3.3 s-1
RPA-DBD-D-Cy5 + Rtt105 = assay: stopped-flow FRET; settings: with Rtt105, kobs 0.5, 48, 3.6 s-1, slower binding
[3] = test system: RPA-DBD-D-Cy5 (Saccharomyces cerevisiae); assay: stopped-flow FRET; settings: no Rtt105, kobs 100.3, 16, 1.4 s-1
RPA-DBD-A-Cy5 + Rtt105 = assay: stopped-flow FRET; settings: with Rtt105, kobs1 15, kobs2 1.9 s-1
[4] = test system: RPA-DBD-A-Cy5 (Saccharomyces cerevisiae); assay: stopped-flow FRET; settings: no Rtt105, kobs1 18.2, kobs2 2.7 s-1
[5] = test system: RPA-DBD-A-Cy3 + RPA-DBD-D-Cy3; assay: FRET

Q: Which results are given for “TTTTTTTTTTTTTTTTTTTTTTTTTTTTTTTTTTT [(dT)35]”?
A: binding result [1]: binds; binding result [2]: binds

Q: Which results are given for “TTTTTTTTTTTTTTTTTTTTTTTTTTTTTTTTTTTTTTTT [3'-Cy3-(dT)40]”?
A: binding result (RPA-DBD-D-Cy5 + Rtt105): binds; binding result [3]: binds

Q: Does “TTTTTTTTTTTTTTTTTTTTTTTTTTTTTTTTTTTTTTTT [5'-Cy3-(dT)40]” bind (RPA-DBD-A-Cy5 + Rtt105)?
A: binds

Q: Does “TTTTTTTTTTTTTTTTTTTTTTTTTTTTTTTTTTTTTTTT [5'-Cy3-(dT)40]” bind [4]?
A: binds

Q: Does “TTTTTTTTTTTTTTTTTTTTTTTTTTTTTTTTTTTTTTTTTTTTTTTTTTTTTTTTTTTTTTTTTTTTTTTTTTTTTTTTTTTTTTTTTTTTTTTTT [(dT)97]” bind [5]?
A: binds
